# Counter-ions that a name gives are not always drawn. Some of the results follow. Repeats in this data set agree poorly, so a single value says little.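 About 40 Schistosoma mansoni schistosomula per well were imaged over time in bright field and compared with 0.1% DMSO wells. A drug counts as a hit if its Mahalanobis distance reaches 2.47 or more, three standard deviations above the DMSO control mean. Degeneracy is the fraction of worms scored opaque.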
# Tested on: Schistosoma mansoni schistosomula
# Assay: Mahalanobis distance of static-rate-frequency phenotype descriptors from DMSO controls (dimensionless); higher = stronger phenotypic change versus DMSO
# Conditions: 10 µM; 72 h
row,Structure (SMILES),Mahalanobis distance
1,CNC(=C[N+](=O)[O-])NCCSCc1ccc(CN(C)C)o1 [Ranitidine],inactive: 1.49
2,COC(=O)[C@H]1[C@H]2C[C@@H]3c4[nH]c5cc(OC)ccc5c4CCN3C[C@H]2C[C@@H](OC(=O)c2cc(OC)c(OC)c(OC)c2)[C@@H]1OC [reserpine],active: 2.65
3,CS(=O)(=O)c1ccc([C@@H](O)[C@@H](CO)NC(=O)C(Cl)Cl)cc1 [Thiamphenicol],active: 2.52
4,C[C@]12C=CC(=O)C=C1CC[C@@H]1[C@@H]2[C@@H](O)C[C@@]2(C)[C@H]1CC[C@]2(O)C(=O)CO [Prednisolone],inactive: 2.33
5,N=c1ccn2c(n1)O[C@H]1[C@H](O)[C@@H](CO)O[C@H]12 [Ancitabine Hydrochloride],inactive: 1.77
6,O=C(O)Cc1ccccc1Nc1c(Cl)cccc1Cl [Diclofenac],inactive: 1.89
7,OC[C@@H](O)[C@@H](O)CO [Erythritol],inactive: 1.66
8,O=C1C(CC[S+]([O-])c2ccccc2)C(=O)N(c2ccccc2)N1c1ccccc1 (stereo not given) [Sulfinpyrazone],inactive: 2.02
9,NS(=O)(=O)c1cc2c(cc1Cl)N=C(CSCc1ccccc1)NS2(=O)=O [Benzthiazide],inactive: 1.7
10,CC(=O)OC/C=C(C)/C=C/C=C(C)/C=C/C1=C(C)CCCC1(C)C [Retinyl Acetate],inactive: 2.26
11,C#C[C@]1(OC(C)=O)CC[C@H]2[C@@H]3CCC4=C[C@@H](OC(C)=O)CC[C@@H]4[C@H]3CC[C@@]21C [Ethynodiol Diacetate],active: 2.82
12,O=C1CC[C@@H](C(=O)O)N1 [Pidolic Acid],active: 2.89
13,C#C[C@]1(O)CC[C@H]2[C@@H]3CCC4=CC(=O)CC[C@@H]4[C@H]3CC[C@@]21C [Norethindrone],active: 2.47
14,CO[C@@]1(NC(=O)C(C(=O)O)c2ccc(O)cc2)C(=O)N2C(C(=O)O)=C(CSc3nnnn3C)CO[C@@H]21 (stereo not given in full) [Moxalactam Disodium],inactive: 2.09
15,COc1cc2c(cc1O)CC[C@@H]1[C@@H]2CC[C@]2(C)[C@@H](O)CC[C@@H]12 [2-methoxyestradiol],active: 2.83
16,CN(C)CCCN1c2ccccc2CCc2ccc(Cl)cc21 [Clomipramine],inactive: 1.5
17,Cc1cc(C(C)(C)CC(C)(C)C)ccc1OCCOCC[N+](C)(C)Cc1ccccc1 [Methylbenzethonium Chloride],inactive: 2.27
18,Cc1cc(NC(=O)C2=C(O)c3ccccc3S(=O)(=O)N2C)no1 [Isoxicam],inactive: 1.98
19,Nc1ccc(O)c(C(=O)O)c1 [Mesalamine],inactive: 1.65
20,CCC(=O)O[C@H](CC(=O)O)C[N+](C)(C)C [Levocarnitine Propionate Hydrochloride],inactive: 2.05
21,Clc1ccccc1CN1CCc2sccc2C1 [Ticlopidine],inactive: 2.03
22,CC1=C(/C=C/C(C)=C/C=C/C(C)=C/C=C/C=C(C)/C=C/C=C(C)/C=C/C2=C(C)CCCC2(C)C)C(C)(C)CCC1 [Beta-carotene],inactive: 1.66
23,CC[C@H]1OC(=O)[C@H](C)[C@@H](O[C@H]2C[C@@](C)(OC)[C@@H](O)[C@H](C)O2)[C@H](C)[C@@H](O[C@@H]2O[C@H](C)C[C@H](N(C)C)[C@H]2O)[C@](C)(O)C[C@@H](C)C(=O)[C@H](C)[C@@H](O)[C@]1(C)O [Erythromycin],inactive: 2.12
24,CC(C(=O)O)c1ccc(CC2CCCC2=O)cc1 (stereo not given) [Loxoprofen],active: 3.12

row,Structure (SMILES),Mahalanobis distance
1,Clc1ccc2c(c1)C(N1CCNCC1)=Nc1ccccc1O2 [Amoxapine],active: 4.54
2,CC(C)(Oc1ccc(CCNC(=O)c2ccc(Cl)cc2)cc1)C(=O)O [Bezafibrate],inactive: 1.5
3,OCCN1CCN(CCCN2c3ccccc3Sc3ccc(C(F)(F)F)cc32)CC1 [fluphenazine],inactive: 1.86
4,O=C(O)c1ccccc1-c1c2cc(I)c(=O)c(I)c-2oc2c(I)c(O)c(I)cc12 [Erythrosine Sodium],active: 3.94
5,CCc1ccc(CCOc2ccc(CC3SC(=O)NC3=O)cc2)nc1 (stereo not given) [Pioglitazone],inactive: 2.47
6,Cc1ccc(N(CC2=NCCN2)c2cccc(O)c2)cc1 [Phentolamine],inactive: 2.4
7,O=C1c2c(O)cc(CO)cc2C(OC2OC(CO)C(O)C(O)C2O)c2cccc(OC3OC(CO)C(O)C(O)C3O)c21 (stereo not given) [Casanthranol [cascaroside A Shown]],inactive: 2.15
8,CO[C@H]1/C=C/O[C@@]2(C)Oc3c(C)c(O)c4c(O)c(c(/C=N/N5CCN(C)CC5)c(O)c4c3C2=O)NC(=O)/C(C)=C\C=C\[C@H](C)[C@H](O)[C@@H](C)[C@@H](O)[C@@H](C)[C@H](OC(C)=O)[C@@H]1C [Rifampin],active: 2.95
9,Cc1c(Cl)cccc1Nc1ccccc1C(=O)O [Tolfenamic Acid],inactive: 1.69
10,COC(=O)[C@H](c1ccccc1Cl)N1CCc2sccc2C1 [Clopidogrel],active: 2.61
11,C[C@]12CCC(=O)C=C1CC[C@@H]1[C@@H]2C(=O)C[C@@]2(C)[C@H]1CC[C@]2(O)C(=O)CO [Cortisone],inactive: 2.14
12,CC(=O)[C@@]12O[C@](C)(c3ccccc3)O[C@@H]1C[C@H]1[C@@H]3CCC4=CC(=O)CC[C@]4(C)[C@H]3CC[C@@]12C [Algestone Acetophenide],inactive: 2.18
13,CN(C)[C@@H]1C(O)=C(C(N)=O)C(=O)[C@@]2(O)C(O)=C3C(=O)c4c(O)cccc4[C@@](C)(O)[C@H]3C[C@@H]12 [Tetracycline],inactive: 2.13
14,COc1ccc(CC(C)NCC(O)c2ccc(O)c(NC=O)c2)cc1 (stereo not given) [Formoterol],active: 2.53
15,CC(C)C[C@H](NC(=O)[C@H](Cc1ccccc1)NC(=O)c1cnccn1)B(O)O [Bortezomib],inactive: 1.73
16,Oc1c(Br)cc(Br)c2cccnc12 [Broxyquinoline],inactive: 2.22
17,CCOC(=O)N1CCC(=C2c3ccc(Cl)cc3CCc3cccnc32)CC1 [Loratadine],inactive: 1.71
18,NC(=O)c1ccccc1O [Salicylamide],inactive: 1.52
19,CCCCCN(C)CCC(O)(P(=O)(O)O)P(=O)(O)O [Ibandronate Sodium],active: 2.58
20,C[Se]CC[C@H](N)C(=O)O [Selenomethionine],inactive: 2.29
21,c1ccc2c(c1)CCCC2C1=NCCN1 (stereo not given) [Tetrahydrozoline],inactive: 1.81
22,CCCCN1C[C@H](O)[C@@H](O)[C@H](O)[C@H]1CO [Miglustat],inactive: 1.86
23,C[C@@H](O)[C@H]1C(=O)N2C(C(=O)O)=C(SCCNC=N)C[C@H]12 [Imipenem],active: 3.18
24,CS(=O)(=O)c1ccc([C@@H](O)[C@@H](CF)NC(=O)C(Cl)Cl)cc1 [Florfenicol],inactive: 1.95

# Pulled by compound from the entries so far:
row,Structure (SMILES),Mahalanobis distance
17,CCOC(=O)N1CCC(=C2c3ccc(Cl)cc3CCc3cccnc32)CC1 [Loratadine],inactive: 1.71
21,c1ccc2c(c1)CCCC2C1=NCCN1 (stereo not given) [Tetrahydrozoline],inactive: 1.81

# Additional compounds.

row,Structure (SMILES),Mahalanobis distance
1,Cc1cccc(C)c1NC(=O)c1ccccc1C(=O)O [Ftaxilide],inactive: 2.04
2,Nc1ccc(S(=O)(=O)NC(=O)c2ccccc2)cc1 [Sulfabenzamide],inactive: 2.14
3,C[N+](C)(C)CCOP(=O)(O)OP(=O)([O-])OC[C@H]1O[C@@H](n2ccc(N)nc2=O)[C@H](O)[C@@H]1O [Citicoline],inactive: 1.71
4,CCCc1ncc(C[n+]2ccccc2C)c(N)n1 [Amprolium],inactive: 1.64
5,Oc1ccc(C2CNCCc3c2cc(O)c(O)c3Cl)cc1 (stereo not given) [Fenoldopam Mesylate],active: 2.91
6,CC(C(=O)O)c1cccc(Oc2ccccc2)c1 (stereo not given) [Fenoprofen],inactive: 1.45
7,CCn1cc(C(=O)O)c(=O)c2cc(F)c(N3CCNCC3)nc21 [Enoxacin],inactive: 1.63
8,OC[C@@H](O)[C@@H](O)[C@H](O)[C@H](O)CO [Mannitol],active: 2.66
9,O=C(O)CCCCCCCC(=O)O [Azelaic Acid],inactive: 2.09
10,O=C(O)CN1C(=O)c2cccc3cccc(c23)C1=O [Alrestatin],inactive: 1.84
11,CCCCN(CCCC)CCCOC(=O)c1ccc(N)cc1 [Butacaine],inactive: 1.65
12,Cc1ccc(C(=O)c2ccc(CC(=O)O)n2C)cc1 [Tolmetin Sodium],inactive: 1.17
13,CC(=O)OCC(=O)[C@@]1(O)CC[C@H]2[C@@H]3CCC4=CC(=O)C=C[C@]4(C)[C@@]3(Cl)[C@@H](Cl)C[C@@]21C [Dichlorisone Acetate],inactive: 1.54
14,Cc1ncc(C[n+]2csc(CCO)c2C)c(N)n1 [Thiamine],inactive: 1.58
15,CC(C)c1c(C(=O)Nc2ccccc2)c(-c2ccccc2)c(-c2ccc(F)cc2)n1CC[C@@H](O)C[C@@H](O)CC(=O)O [Atorvastatin Calcium],active: 3.13
16,CCCCCCCCCCCCCCCC(=O)OC/C=C(C)/C=C/C=C(C)/C=C/C1=C(C)CCCC1(C)C [Retinyl Palmitate],inactive: 2.02
17,NS(=O)(=O)c1cc(C2(O)NC(=O)c3ccccc32)ccc1Cl (stereo not given) [Chlorthalidone],inactive: 2.1
18,CC[N+](C)(C)c1cccc(O)c1 [Edrophonium Chloride],inactive: 2.05
19,Nc1[nH]cnc2ncnc1-2 [Adenine],inactive: 1.74
20,CCCOc1cc(N)ccc1C(=O)OCCN(CC)CC [Propoxycaine Hydrochloride],inactive: 1.5
21,OC(Cn1cncn1)(Cn1cncn1)c1ccc(F)cc1F [Fluconazole],inactive: 1.4
22,CN1CCN(CC/C=C2/c3ccccc3Sc3ccc(S(=O)(=O)N(C)C)cc32)CC1 [Thiothixene],inactive: 2.43

# Three compounds from above, ordered by formula weight, low to high.
row,Structure (SMILES),Mahalanobis distance
20,CCCOc1cc(N)ccc1C(=O)OCCN(CC)CC [Propoxycaine Hydrochloride],inactive: 1.5
11,CCCCN(CCCC)CCCOC(=O)c1ccc(N)cc1 [Butacaine],inactive: 1.65
7,CCn1cc(C(=O)O)c(=O)c2cc(F)c(N3CCNCC3)nc21 [Enoxacin],inactive: 1.63

# Source: the supplement of paper PMC7752906
